In PubChem BioAssay AID1117319 (Southern Research Institute, 2015):
“And” between values parts separate entries of the source, which are not always exact repeats. Equal values may be shown once. In all, about 260,000 compounds went through this assay and about 1,500 (0.58%) were called active. The shares of active, inactive and inconclusive entries below differ from those in the screen.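 How the source made its calls: active means inhibition above a set limit at one or more doses, reproduced on every date tested; inconclusive means results disagree between test dates, or hit never tested in dose response; inactive means the rest.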

The chains behind the UniProt entries cited, without tags or fusion partners. Where a name states a change or a piece, a line headed by the entry shows the natural chain unless it says otherwise.
UniProt P69720: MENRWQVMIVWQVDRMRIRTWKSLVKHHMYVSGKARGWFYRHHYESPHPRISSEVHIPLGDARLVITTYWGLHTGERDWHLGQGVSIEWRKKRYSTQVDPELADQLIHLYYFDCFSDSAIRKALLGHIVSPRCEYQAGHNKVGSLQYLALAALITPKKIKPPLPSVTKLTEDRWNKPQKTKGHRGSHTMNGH
UniProt P69721: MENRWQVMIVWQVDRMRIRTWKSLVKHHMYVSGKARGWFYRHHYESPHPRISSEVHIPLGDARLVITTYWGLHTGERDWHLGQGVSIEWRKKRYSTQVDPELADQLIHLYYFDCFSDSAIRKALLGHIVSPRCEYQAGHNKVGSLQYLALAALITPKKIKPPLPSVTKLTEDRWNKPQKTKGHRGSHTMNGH
UniProt P69722: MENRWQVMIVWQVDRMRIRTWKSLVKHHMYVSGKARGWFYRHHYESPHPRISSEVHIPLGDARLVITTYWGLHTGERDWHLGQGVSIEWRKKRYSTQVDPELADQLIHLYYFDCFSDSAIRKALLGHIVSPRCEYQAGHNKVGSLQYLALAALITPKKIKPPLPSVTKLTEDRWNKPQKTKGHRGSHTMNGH
UniProt P69723: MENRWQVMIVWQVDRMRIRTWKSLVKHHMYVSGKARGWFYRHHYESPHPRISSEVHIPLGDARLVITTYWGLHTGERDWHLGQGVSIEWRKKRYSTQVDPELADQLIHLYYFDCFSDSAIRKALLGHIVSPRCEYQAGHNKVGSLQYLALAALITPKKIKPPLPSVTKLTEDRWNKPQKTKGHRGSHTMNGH
UniProt Q9HC16: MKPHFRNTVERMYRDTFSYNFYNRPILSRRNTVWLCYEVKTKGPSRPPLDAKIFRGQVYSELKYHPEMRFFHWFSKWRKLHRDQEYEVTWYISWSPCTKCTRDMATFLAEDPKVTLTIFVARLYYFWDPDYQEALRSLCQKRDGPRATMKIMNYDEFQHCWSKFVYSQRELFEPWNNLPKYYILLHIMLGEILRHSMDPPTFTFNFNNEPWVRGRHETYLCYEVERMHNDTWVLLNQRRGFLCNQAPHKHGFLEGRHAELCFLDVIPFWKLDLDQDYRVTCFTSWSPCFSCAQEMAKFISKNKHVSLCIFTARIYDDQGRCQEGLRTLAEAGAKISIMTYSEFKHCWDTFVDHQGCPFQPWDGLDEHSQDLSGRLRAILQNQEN

biological target: Virion infectivity factor (Human immunodeficiency virus type 1 group M subtype B (isolate BH10)) + Virion infectivity factor (Human immunodeficiency virus type 1 group M subtype B (isolate BRU/LAI)) + Virion infectivity factor (Human immunodeficiency virus type 1 group M subtype B (isolate PCV12)) + Virion infectivity factor (Human immunodeficiency virus type 1 group M subtype B (isolate HXB2)) + DNA dC->dU-editing enzyme APOBEC-3G (Homo sapiens) (UniProt P69720+P69721+P69722+P69723+Q9HC16); assay: inhibitors of Vif binding to APOBEC3G peptide, primary screen, biochemical, TR-FRET, GST-Vif 1-94, biotin-A3G peptide, dose response retest (AID 1117319); details: active compounds read high;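 further: Vif residues 1-94 fused to GST binding biotinylated APOBEC3G peptide 110-148; 0% = full assay without inhibitor and 100% = GST in place of GST-Vif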

| Structure (SMILES) | inhibition |
| --- | --- |
| COc1cccc(C(C#N)N2N=C(C)CC2(C)C)c1O (stereo not given) | inactive: -2.38% |
| CCN1CCN(C(c2cc3cccc(C)c3[nH]c2=O)c2nnnn2Cc2ccccc2)CC1 (stereo not given) | inconclusive: 39.7% |
| CN(N=Nc1ccc([N+](=O)[O-])cc1)c1ccccc1 | inconclusive: 42.3% |
| CC1=C/C(=C\c2ccc(Br)o2)C(=O)O1 | inconclusive: 53.7% |
| CCOc1ccc(NC(=S)NNC(=O)CC(C)O)cc1 (stereo not given) | inconclusive: 45% |
| COc1ccc(C(=O)C2CCCN(C(=O)Cn3nc(C)cc3C)C2)cc1F (stereo not given) | inconclusive: 51.5% |
| O=C(Cc1cccs1)Nc1ccc2c(c1)C(=O)OC2 | inconclusive: 36% |
| Cc1ccc(N2C(=O)C3CCC(C)(C2=O)C3(C)C)cc1 (stereo not given) | inconclusive: 42.4% |
| Cn1cnc(C(F)(F)F)c1-c1ccc([N+](=O)[O-])cc1 | inconclusive: 46.7% |
| Cc1ccc(NC(=O)c2cc(C)n(-c3ccccc3)c2C)cc1 | inconclusive: 36.6% |
| Cc1ccc(NC(=O)Cn2c(CCC(=O)O)ccc2-c2cccs2)cc1 | inconclusive: 44% |
| Cc1cc(C)nc(NC(=O)c2cccc(Cl)c2)n1 | inconclusive: 41.4% |
| Cc1cccc(NC(=S)NCc2ccc(F)cc2)c1 | inactive: -7.76% |
| Cc1[nH]c2ccccc2c1Cc1nnc(SCC(N)=O)o1 | inactive: 9.95% |
| S=C(Nc1ccc(Br)cc1Cl)N1CCC2(CC1)OCCO2 | inconclusive: 39.7% |
| CC(=O)C1=C(O)C(=O)N(Cc2ccco2)C1c1ccc2c(c1)OCO2 (stereo not given) | inconclusive: 54.9% |
| CC(=O)N1CC(=O)N(Cc2ccccc2)/C(=C/c2ccccc2)C1=O | inactive: 7.17% |
| CCCCN(CC)CCCNC(=S)Nc1ccc2nc(N3CCN(CC)CC3)cc(C)c2c1 | inconclusive: 62.4% |
| COc1cc(/C=N/NC(=O)CCC(=O)NCc2ccccc2)cc(OC)c1OC | inconclusive: 34.9% |
| COc1ccc(NC(=O)c2cc(C(C)C)on2)cc1OC | inconclusive: 33.7% |
| CN(CCOc1ccc(Cl)cc1)C(=O)c1ccccc1SCC(=O)N1CCCC1 | inconclusive: 41.8% |
| CCOC(=O)c1[nH]c(C)c(C(=O)NCCc2ccc(OC)cc2)c1C | inconclusive: 60.6% |
| COc1ccc2nc(Nc3nc(CSc4nnc(C)s4)cc(=O)[nH]3)nc(C)c2c1 | inconclusive: 47.6% |

Structural class, the compounds so far with a halogen.

| Structure (SMILES) | inhibition |
| --- | --- |
| CC1=C/C(=C\c2ccc(Br)o2)C(=O)O1 | inconclusive: 53.7% |
| COc1ccc(C(=O)C2CCCN(C(=O)Cn3nc(C)cc3C)C2)cc1F (stereo not given) | inconclusive: 51.5% |
| Cn1cnc(C(F)(F)F)c1-c1ccc([N+](=O)[O-])cc1 | inconclusive: 46.7% |
| Cc1cc(C)nc(NC(=O)c2cccc(Cl)c2)n1 | inconclusive: 41.4% |
| Cc1cccc(NC(=S)NCc2ccc(F)cc2)c1 | inactive: -7.76% |
| S=C(Nc1ccc(Br)cc1Cl)N1CCC2(CC1)OCCO2 | inconclusive: 39.7% |
| CN(CCOc1ccc(Cl)cc1)C(=O)c1ccccc1SCC(=O)N1CCCC1 | inconclusive: 41.8% |

(cont.)

| Structure (SMILES) | inhibition |
| --- | --- |
| COc1cccc(=O)c2c(C)n(-c3cc(C)cc(C)c3)c(C)c12 | inactive: 21.8% |
| CC(=O)Nc1sc2c(c1C#N)CCCCC2 | inconclusive: 59.4% |
| CCCCCNc1nc(-c2ccccc2)cs1 | inconclusive: 41.7% |
| COCCCn1c(=NC(=O)c2ccncc2)c(C#N)cc2c(=O)n3cccc(C)c3nc21 | inactive: 3.9% and inactive: 7.65% |
| COc1ccc(NCc2n[nH]c(=O)c3ccccc23)cc1 | inactive: 4.49% |
| COCCCn1c(SCC(=O)NCc2ccco2)nc2sc3c(c2c1=O)CCC3 | inconclusive: 47.2% |
| COc1ccc(C2=NCN(c3ccc(C)cc3)C(=S)N2)cc1 | inconclusive: 51.3% |
| CCN(CC)CC(=O)c1c(N)n(Cc2ccccc2)c(=O)n(C)c1=O | inconclusive: 50.6% |
| Cc1nn(-c2ccccc2)c2c1C(O)n1c(nc3ccccc31)S2 (stereo not given) | inconclusive: 56.6% |
| O=C1Nc2ccccc2C(O)(C(=O)NCc2ccc3c(c2)OCO3)N1c1ccccc1 (stereo not given) | inconclusive: 48.1% |
| CC(=O)N/C(=C\c1ccc(F)cc1)C(=O)NC(Cc1ccccc1)C(=O)O (stereo not given) | inconclusive: 59.6% |
| CCN(CC)Cc1oc(CO)cc(=O)c1O | inconclusive: 64.1% |
| CN(NC(N)=O)c1ncc(C(F)(F)F)cc1Cl | inconclusive: 34.6% |
| Cc1ccc(S(=O)(=O)N2CCC(C(=O)N[C@H](C(=O)N3CCN(C)CC3)C(C)C)CC2)cc1 | inconclusive: 31.7% |
| O=C(CCc1nnc(Cc2ccc(-c3ccccc3)cc2)o1)N1CCCC1 | inconclusive: 48.2% |
| C#CCOCCOCCOCCNc1nc(N2CCN(C(=O)Cn3cc(CCCN=C(N)N)nn3)CC2)nc(N2CCN(C(=O)[C@H](C(C)C)n3cc(CCO)nn3)CC2)n1 | inconclusive: 35.6% |
| O=C(Nc1ccc(/C=C/c2nc3ccccc3o2)cc1)c1c(F)cccc1F | inconclusive: 38.8% |
| CCCc1nc2ccccc2c(C(=O)OC2CCOC2=O)c1CC (stereo not given) | inconclusive: 21.6% |
| CCN1C(=O)/C(=C/N2CCc3ccccc32)SC1=S | inactive: 2.5% |
| Cc1cc(-c2ccc(F)cc2)nc2cc(C(N)=O)nn12 | inconclusive: 34.1% |
| O=C1N/C(=C/c2cccn2-c2ccc(F)cc2)C(=O)N1Cc1ccccc1F | inactive: 5.17% |
| COc1ccc(Cl)cc1NC(=S)NCc1cccs1 | inconclusive: 46.8% |
